{
  "sequences": {"note": "Sequences of proteins named here, by UniProt entry; tags and fusion partners are left off.", "UniProt P48025, whole entry": "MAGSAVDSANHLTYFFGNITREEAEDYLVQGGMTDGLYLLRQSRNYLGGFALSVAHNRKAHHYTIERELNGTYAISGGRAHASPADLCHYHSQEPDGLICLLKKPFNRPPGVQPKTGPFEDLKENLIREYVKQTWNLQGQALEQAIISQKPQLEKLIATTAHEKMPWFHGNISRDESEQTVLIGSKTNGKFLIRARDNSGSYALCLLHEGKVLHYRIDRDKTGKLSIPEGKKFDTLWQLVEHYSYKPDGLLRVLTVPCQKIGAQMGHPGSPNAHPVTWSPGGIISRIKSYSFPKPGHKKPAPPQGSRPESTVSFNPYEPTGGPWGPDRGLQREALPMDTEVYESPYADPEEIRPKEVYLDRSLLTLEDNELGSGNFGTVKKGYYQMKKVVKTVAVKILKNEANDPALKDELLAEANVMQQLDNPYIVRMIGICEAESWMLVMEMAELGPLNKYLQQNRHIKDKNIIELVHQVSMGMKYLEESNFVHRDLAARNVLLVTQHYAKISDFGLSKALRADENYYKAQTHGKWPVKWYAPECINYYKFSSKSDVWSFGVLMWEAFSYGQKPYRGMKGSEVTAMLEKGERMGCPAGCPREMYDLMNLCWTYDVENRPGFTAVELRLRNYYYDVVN"},
  "source": "patent US10150984B2",
  "about": "“Tyrosine kinase biosensors and methods of use” (Purdue Research Foundation, priority 2012, dated 2018)",
  "biological_target": "Syk (Mus musculus, UniProt P48025)",
  "experiment": "Primary mouse splenic B cell SAStide biosensor assay",
  "settings": "primary mouse splenic B cells, 10 nM dasatinib or 1 μM piceatannol 1 h before anti-IgM F(ab')2 stimulation",
  "note": "At least one compound was matched to its structure with a doubt left.",
  "data": [
    {"smiles": "Cc1nc(Nc2ncc(C(=O)Nc3c(C)cccc3Cl)s2)cc(N2CCN(CCO)CC2)n1", "note": "[dasatinib]", "values": [
      {"measurement": "level of phosphorylation of the SAStide biosensor", "value": "decreased"}
    ]}
  ]
}
